The experiment addresses T1, Beclin1 (BECN1) (mouse (endogenous in small intestinal epithelial cells)), O88597.
T1 chain: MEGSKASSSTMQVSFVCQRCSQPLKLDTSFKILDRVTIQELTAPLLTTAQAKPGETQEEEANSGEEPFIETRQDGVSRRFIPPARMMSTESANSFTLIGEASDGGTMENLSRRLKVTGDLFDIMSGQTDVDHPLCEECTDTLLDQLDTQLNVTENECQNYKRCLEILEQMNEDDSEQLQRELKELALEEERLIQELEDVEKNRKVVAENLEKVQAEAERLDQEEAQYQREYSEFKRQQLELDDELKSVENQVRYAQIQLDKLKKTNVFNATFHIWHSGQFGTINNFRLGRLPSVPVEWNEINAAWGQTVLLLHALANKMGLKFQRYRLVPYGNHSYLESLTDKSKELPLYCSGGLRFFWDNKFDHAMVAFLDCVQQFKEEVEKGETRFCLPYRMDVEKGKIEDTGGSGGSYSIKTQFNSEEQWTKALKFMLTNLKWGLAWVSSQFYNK
The experiment in a line: co-IP; small intestinal epithelial cell lysates (T-PER, 5 mg/mL) from uninfected or S. Typhimurium-infected (24 h) germ-free wild-type and Myd88-/- mice; immunoprecipitated with mouse anti-BECN1 on Protein A agarose at 4 °C, washed three times with T-PER, blotted with anti-BCL2-HRP and rabbit anti-BECN1. The note with it: remark: other sources report otherwise.

These are yes or no findings as the source states them, for the method shown. In cells and extracts the contact can be indirect. Some results given as binding are weak or reduced against the parent protein; the word gives no strength.

B1: B cell lymphoma 2 (BCL2), P10417 1-236 (protein)
chain: MAQAGRTGYDNREIVMKYIHYKLSQRGYEWDAGDADAAPLGAAPTPGIFSFQPESNPMPAVHRDMAARTSPLRPLVATAGPALSPVPPVVHLTLRRAGDDFSRRYRRDFAEMSSQLHLTPFTARGRFATVVEELFRDGVNWGRIVAFFEFGGVMCVESVNREMSPLVDNIALWMTEYLNRHLHTWIQDNGGWDAFVELYGPSMRPLFDFSWLSLKTLLSLALVGACITLGAYLGHK
As to B1, the binding result is recorded as “binds”.

For the origin of these results see paper PMC11626146.
